Data reported in US20180320217A1, “METHODS FOR SAMPLING AND MEASURING ORAL LAVAGE PROTEINS” (The Procter & Gamble Company, priority 2017, published 2018).

B1: Contactin-1 (protein, UniProt Q12860 21-993, looked up)
Contactin-1: EFTWYRRYGHGVSEEDKGFGPIFEEQPINTIYPEESLEGKVSLNCRARASPFPVYKWRMNNGDVDLTSDRYSMVGGNLVINNPDKQKDAGIYYCLASNNYGMVRSTEATLSFGYLDPFPPEERPEVRVKEGKGMVLLCDPPYHFPDDLSYRWLLNEFPVFITMDKRRFVSQTNGNLYIANVEASDKGNYSCFVSSPSITKSVFSKFIPLIPIPERTTKPYPADIVVQFKDVYALMGQNVTLECFALGNPVPDIRWRKVLEPMPSTAEISTSGAVLKIFNIQLEDEGIYECEAENIRGKDKHQARIYVQAFPEWVEHINDTEVDIGSDLYWPCVATGKPIPTIRWLKNGYAYHKGELRLYDVTFENAGMYQCIAENTYGAIYANAELKILALAPTFEMNPMKKKILAAKGGRVIIECKPKAAPKPKFSWSKGTEWLVNSSRILIWEDGSLEINNITRNDGGIYTCFAENNRGKANSTGTLVITDPTRIILAPINADITVGENATMQCAASFDPALDLTFVWSFNGYVIDFNKENIHYQRNFMLDSNGELLIRNAQLKHAGRYTCTAQTIVDNSSASADLVVRGPPGPPGGLRIEDIRATSVALTWSRGSDNHSPISKYTIQTKTILSDDWKDAKTDPPIIEGNMEAARAVDLIPWMEYEFRVVATNTLGRGEPSIPSNRIKTDGAAPNVAPSDVGGGGGRNRELTITWAPLSREYHYGNNFGYIVAFKPFDGEEWKKVTVTNPDTGRYVHKDETMSPSTAFQVKVKAFNNKGDGPYSLVAVINSAQDAPSEAPTEVGVKVLSSSEISVHWEHVLEKIVESYQIRYWAAHDKEEAANRVQVTSQEYSARLENLLPDTQYFIEVGACNSAGCGPPSDMIEAFTKKAPPSQPPRIISSVRSGSRYIITWDHVVALSNESTVTGYKVLYRPDGQHDGKLYSTHKHSIEVPIPRDGEYVVEVRAHSDGGDGVVSQVKIS
B2: CHM4B_HUMAN (protein, UniProt Q9H444 2-224, looked up)
Charged multivesicular body …: SVFGKLFGAGGGKAGKGGPTPQEAIQRLRDTEEMLSKKQEFLEKKIEQELTAAKKHGTKNKRAALQALKRKKRYEKQLAQIDGTLSTIEFQREALENANTNTEVLKNMGYAAKAMKAAHDNMDIDKVDELMQDIADQQELAEEISTAISKPVGFGEEFDEDELMAELEELEQEELDKNLLEISGPETVPLPNVPSIALPSKPAKKKEEEDDDMKELENWAGSM
B3: ICAL_HUMAN (protein, UniProt P20810 1-708, looked up)
Calpastatin: MNPTETKAIPVSQQMEGPHLPNKKKHKKQAVKTEPEKKSQSTKLSVVHEKKSQEGKPKEHTEPKSLPKQASDTGSNDAHNKKAVSRSAEQQPSEKSTEPKTKPQDMISAGGESVAGITAISGKPGDKKKEKKSLTPAVPVESKPDKPSGKSGMDAALDDLIDTLGGPEETEEENTTYTGPEVSDPMSSTYIEELGKREVTIPPKYRELLAKKEGITGPPADSSKPIGPDDAIDALSSDFTCGSPTAAGKKTEKEESTEVLKAQSAGTVRSAAPPQEKKRKVEKDTMSDQALEALSASLGTRQAEPELDLRSIKEVDEAKAKEEKLEKCGEDDETIPSEYRLKPATDKDGKPLLPEPEEKPKPRSESELIDELSEDFDRSECKEKPSKPTEKTEESKAAAPAPVSEAVCRTSMCSIQSAPPEPATLKGTVPDDAVEALADSLGKKEADPEDGKPVMDKVKEKAKEEDREKLGEKEETIPPDYRLEEVKDKDGKPLLPKESKEQLPPMSEDFLLDALSEDFSGPQNASSLKFEDAKLAAAISEVVSQTPASTTQAGAPPRDTSQSDKDLDDALDKLSDSLGQRQPDPDENKPMEDKVKEKAKAEHRDKLGERDDTIPPEYRHLLDDNGQDKPVKPPTKKSEDSKKPADDQDPIDALSGDLDSCPSTTETSQNTAKDKCKKAASSSKAPKNGGKAKDSAKTTEETSKPKDD
B4: CLCB_HUMAN (protein, UniProt P09497 1-229, looked up)
Clathrin light chain B: MADDFGFFSSSESGAPEAAEEDPAAAFLAQQESEIAGIENDEGFGAPAGSHAAPAQPGPTSGAGSEDMGTTVNGDVFQEANGPADGYAAIAQADRLTQEPESIRKWREEQRKRLQELDAASKVTEQEWREKAKKDLEEWNQRQSEQVEKNKINNRIADKAFYQQPDADIIGYVASEEAFVKESKEETPGTEWEKVAQLCDFNPKSSKQCKDVSRLRSVLMSLKQTPLSR
B5: Complement C2 (protein, UniProt P06681 21-752, looked up)
Complement C2: APSCPQNVNISGGTFTLSHGWAPGSLLTYSCPQGLYPSPASRLCKSSGQWQTPGATRSLSKAVCKPVRCPAPVSFENGIYTPRLGSYPVGGNVSFECEDGFILRGSPVRQCRPNGMWDGETAVCDNGAGHCPNPGISLGAVRTGFRFGHGDKVRYRCSSNLVLTGSSERECQGNGVWSGTEPICRQPYSYDFPEDVAPALGTSFSHMLGATNPTQKTKESLGRKIQIQRSGHLNLYLLLDCSQSVSENDFLIFKESASLMVDRIFSFEINVSVAIITFASEPKVLMSVLNDNSRDMTEVISSLENANYKDHENGTGTNTYAALNSVYLMMNNQMRLLGMETMAWQEIRHAIILLTDGKSNMGGSPKTAVDHIREILNINQKRNDYLDIYAIGVGKLDVDWRELNELGSKKDGERHAFILQDTKALHQVFEHMLDVSKLTDTICGVGNMSANASDQERTPWHVTIKPKSQETCRGALISDQWVLTAAHCFRDGNDHSLWRVNVGDPKSQWGKEFLIEKAVISPGFDVFAKKNQGILEFYGDDIALLKLAQKVKMSTHARPICLPCTMEANLALRRPQGSTCRDHENELLNKQSVPAHFVALNGSKLNINLKMGVEWTSCAEVVSQEKTMFPNLTDVREVVTDQFLCSGTQEDESPCKGESGGAVFLERRFRFFQVGLVSWGLYNPCLGSADKNSRKRAPRSKVPPPRDFHINLFRMQPWLRQHLGDVLNFLPL
B6: Contactin-5 (protein, UniProt O94779 19-1072, looked up)
Contactin-5: EYSKSLPGLSTSYAALLRIKKSSSSSLFGSKTRPRYSSPSLGTLSASSPSWLGAAQNYYSPINLYHSSDAFKQDESVDYGPVFVQEPDDIIFPTDSDEKKVALNCEVRGNPVPSYRWLRNGTEIDLESDYRYSLIDGTFIISNPSEAKDSGHYQCLATNTVGSILSREATLQFAYLGNFSGRTRSAVSVREGQGVVLMCSPPPHSPEIIYSWVFNEFPSFVAEDSRRFISQETGNLYISKVQTSDVGSYICLVKNTVTNARVLSPPTPLTLRNDGVMGEYEPKIEVHFPFTVTAAKGTTVKMECFALGNPVPTITWMKVNGYIPSKARLRKSQAVLEIPNVQLDDAGIYECRAENSRGKNSFRGQLQVYTYPHWVEKLNDTQLDSGSPLRWECKATGKPRPTYRWLKNGVPLSPQSRVEMVNGVLMIHNVNQSDAGMYQCLAENKYGAIYASAELKILASAPTFALNQLKKTIIVTKDQEVVIECKPQGSPKPTISWKKGDRAVRENKRIAILPDGSLRILNASKSDEGKYVCRGENVFGSAEIIASLSVKEPTRIELTPKRTELTVGESIVLNCKAIHDASLDVTFYWTLKGQPIDFEEEGGHFESIRAQASSADLMIRNILLMHAGRYGCRVQTTADSVSDEAELLVRGPPGPPGIVIVEEITESTATLSWSPAADNHSPISSYNLQARSPFSLGWQTVKTVPEIITGDMESAMAVDLNPWVEYEFRVVATNPIGTGDPSTPSRMIRTNEAVPKTAPTNVSGRSGRRHELVIAWEPVSEEFQNGEGFGYIVAFRPNGTRGWKEKMVTSSEASKFIYRDESVPPLTPFEVKVGVYNNKGDGPFSQIVVICSAEGEPSAAPTDVKATSVSVSEILVAWKHIKESLGRPQGFEVGYWKDMEQEDTAETVKTRGNESFVILTGLEGNTLYHFTVRAYNGAGYGPPSSEVSATTKKSPPSQAPSNLRWEQQGSQVSLGWEPVIPLANESEVVGYKVFYRQEGHSNSQVIETQKLQAVVPLPDAGVYIIEVRAYSEGGDGTASSQIRVPSYSGGKITS
B7: CALR_HUMAN (protein, UniProt P27797 18-417, looked up)
Calreticulin: EPAVYFKEQFLDGDGWTSRWIESKHKSDFGKFVLSSGKFYGDEEKDKGLQTSQDARFYALSASFEPFSNKGQTLVVQFTVKHEQNIDCGGGYVKLFPNSLDQTDMHGDSEYNIMFGPDICGPGTKKVHVIFNYKGKNVLINKDIRCKDDEFTHLYTLIVRPDNTYEVKIDNSQVESGSLEDDWDFLPPKKIKDPDASKPEDWDERAKIDDPTDSKPEDWDKPEHIPDPDAKKPEDWDEEMDGEWEPPVIQNPEYKGEWKPRQIDNPDYKGTWIHPEIDNPEYSPDPSIYAYDNFGVLGLDLWQVKSGTIFDNFLITNDEAYAEEFGNETWGVTKAAEKQMKDKQDEEQRLKEEEEDKKRKEEEEAEDKEDDEDKDEDEEDEEDKEEDEEEDVPGQAKDEL
B8: Complement C1r subcomponent (protein, UniProt P00736 18-705, looked up)
Complement C1r subcomponent: SIPIPQKLFGEVTSPLFPKPYPNNFETTTVITVPTGYRVKLVFQQFDLEPSEGCFYDYVKISADKKSLGRFCGQLGSPLGNPPGKKEFMSQGNKMLLTFHTDFSNEENGTIMFYKGFLAYYQAVDLDECASRSKSGEEDPQPQCQHLCHNYVGGYFCSCRPGYELQEDTHSCQAECSSELYTEASGYISSLEYPRSYPPDLRCNYSIRVERGLTLHLKFLEPFDIDDHQQVHCPYDQLQIYANGKNIGEFCGKQRPPDLDTSSNAVDLLFFTDESGDSRGWKLRYTTEIIKCPQPKTLDEFTIIQNLQPQYQFRDYFIATCKQGYQLIEGNQVLHSFTAVCQDDGTWHRAMPRCKIKDCGQPRNLPNGDFRYTTTMGVNTYKARIQYYCHEPYYKMQTRAGSRESEQGVYTCTAQGIWKNEQKGEKIPRCLPVCGKPVNPVEQRQRIIGGQKAKMGNFPWQVFTNIHGRGGGALLGDRWILTAAHTLYPKEHEAQSNASLDVFLGHTNVEELMKLGNHPIRRVSVHPDYRQDESYNFEGDIALLELENSVTLGPNLLPICLPDNDTFYDLGLMGYVSGFGVMEEKIAHDLRFVRLPVANPQACENWLRGKNRMDVFSQNMFCAGHPSLKQDACQGDSGGVFAVRDPNTDRWVATGIVSWGIGCSRGYGFYTKVLNYVDWIKKEMEEED

Experiments:
proteins in oral lavage = test: Abundance of proteins in human oral lavage (SomaLogic), TABLE 1; type: in vivo; details: for Means (Original Scale) High bleeder BL / Means (Original Scale) High bleeder W4 / Means (Original Scale) Low bleeder BL: abundance in oral lavage; for Means (Original Scale) High bleeder BL: high bleeders (gingivitis); for Means (Original Scale) High bleeder BL / Means (Original Scale) Low bleeder BL: baseline; for Means (Original Scale) High bleeder W4 / Fold Change High bleeder W4 vs High bleeder BL: high bleeders; for Means (Original Scale) High bleeder W4: week 4 of investigative products; for Means (Original Scale) Low bleeder BL: low bleeders (healthy); for Fold Change High bleeder BL vs Low bleeder BL / Fold Change High bleeder W4 vs High bleeder BL: oral lavage; for Fold Change High bleeder BL vs Low bleeder BL: high bleeders vs low bleeders at baseline; for Fold Change High bleeder W4 vs High bleeder BL: week 4 of investigative products vs baseline
[1] = system: peptides in gingival brush samples; test: Protein and peptide profiling of gingival brush samples (LC-MS/MS), TABLE 23; type: in vivo, human; details: peptide abundance, gingival brush samples; for Mean Cntl Bsl / Mean Cntl Wk3: control regimen; for Mean Cntl Bsl / Mean TrtBsl: baseline; for Mean Cntl Wk3 / Mean TrtWk3: week 3; for Mean TrtBsl / Mean TrtWk3: treatment regimen

Molecule | Means (Original Scale) High bleeder BL (proteins in oral lavage) | Means (Original Scale) High bleeder W4 (proteins in oral lavage) | Means (Original Scale) Low bleeder BL (proteins in oral lavage) | Fold Change High bleeder BL vs Low bleeder BL (proteins in oral lavage) | Fold Change High bleeder W4 vs High bleeder BL (proteins in oral lavage) | Mean Cntl Bsl [1] | Mean Cntl Wk3 [1] | Mean TrtBsl [1] | Mean TrtWk3 [1]
B1 | 9982 | 5517 | 1919 | 4.20 | 0.60 | – | – | – | –
B2 | – | – | – | – | – | 325.9 | 1287.6 | 616.9 | 1454.2
B3 | – | – | – | – | – | 7447.8 | 9228.5 | 7723.3 | 11067.6
B4 | – | – | – | – | – | 945.1 | 3203.2 | 1495.8 | 3625.8
B5 | 4609 | 1511 | 455 | 6.34 | 0.64 | – | – | – | –
B6 | 937 | 612 | 281 | 3.15 | 0.63 | – | – | – | –
B7 | – | – | – | – | – | 8830.2 | 15188.8 | 11499.9 | 16791.2
B8 | 7672 | 2780 | 918 | 8.87 | 0.52 | – | – | – | –
